These results are taken from patent publication US9803450B2, “Use of oligo-quaternary compositions to increase scale inhibitor lifetime in a subterranean formation” (Ecolab USA Inc., priority 2012, dated 2017).

A short description of this data set: Coreflood. The note with it: for Formation damage: coreflood. How it is done: Two corefloods were carried out simultaneously on two Bandera outcrop cores (1.5″ diameter by 3″ length), using a Scaled Solutions dual coreflood apparatus. The composition of these cores is set out in the table below:
Both cores were wrapped with PTFE tape and cased in heat shrink tubing prior to insertion into a Viton sleeve and mounted in a Hassler type core holder with a confining pressure of 1200 psi. Both cores were then flushed with synthetic brine at 1 mL/min for at least 2 hours and until the differential pressure was stable. Brine was flushed at 0.5 mL/min overnight.
Both cores were saturated with synthetic brine under ambient conditions in the forward direction at 1 mL/min for 10 minutes, 2 mL/min for 10 minutes, 3 mL/min for 10 minutes, and 4 mL/min for 2 hours and until the differential pressure was stable. After a stable differential pressure was achieved, the permeability to brine was measured in the forward flow by flooding at 4, 3, 2, 1 mL/min at room temperature.
Brine was then injected into both cores in the forward direction at 1 mL/min until the oven reached a temperature of 80° C. The cores were each saturated with synthetic brine by injecting in the forward direction at 1 mL/min for 10 minutes, 2 mL/min for 10 minutes, 3 mL/min for 10 minutes, and 4 mL/min for 2 hours and until the differential pressure was stable. Following plug saturation, the permeability of each core to synthetic brine was measured in the forward flow by flooding at 4, 3, 2, and 1 mL/min at 80° C.
The pore volume of each core was then determined by injecting a solution of 50 mg/L lithium in synthetic brine into each core for 30 minutes at 1 mL/min with 0.5 mL effluent samples collected by an auto sampler. […]
Both cores were injected with synthetic brine at 2 mL/min with effluent samples being collected. The samples were analyzed by ICP. Samples were collected and analyzed until the residual scale inhibitor concentration was below the minimum inhibitor concentration.
Brine was injected into each core in the forward direction at 4 mL/min until the differential pressure was stable in order to saturate each core with brine. Following saturation, the permeability of each core to synthetic brine was measured in the forward flow by flooding at 4, 3, 2, and 1 mL/min at 80° C.
In order to determine the post treatment pore volume of both cores, a solution of 50 mg/L lithium in synthetic brine was injected into each core for 30 minutes at 1 mL/min with 0.5 mL effluent samples collected by an auto sampler. […] Each of these samples was analyzed by ICP to determine the pore volume.
A series of saturations and measurements were carried out using multi-rate flow to allow the permeability of each core to be calculated using Darcy's Law. […]

As for `C[N+](C)(C)CC(O)C[N+](C)(C)C.[Cl-].[Cl-]` [Product A, 1,3-propandiaminium, 2-hydroxy-N,N,N,N′,N′,N′-hexamethyl-, dichloride], the “Formation damage” value is “no threat of formation damage”.

Consider `O=P(O)(O)CN(CCCCCCN(CP(=O)(O)O)CP(=O)(O)O)CCCCCCN(CP(=O)(O)O)CP(=O)(O)O` [Product B, BHMT phosphonate], for which the “Formation damage” value is listed as “no formation damage”. For the same compound, the “Return curve plateau concentration of scale inhibitor” value (FIG. 7) came to 1 mg/L. For the same compound, the “Pore volumes of brine until Product B concentration dropped below minimum acceptable inhibitor concentration (MIC)” value (MIC of 5 ppm, post flush with synthetic brine 2 mL/min) is 1900 pore volumes.
